# Laboratory results: paper PMC4297295, “Structural Conservation Despite Huge Sequence Diversity Allows EPCR Binding by the PfEMP1 Family Implicated in Severe Childhood Malaria” (Cell Host & Microbe, 2015)
# No constants are given. Whether binding was seen depends on the method and setting. Binding can be weak; no strength is given.
# Biological target: T1, endothelial protein C receptor, extracellular domain (human) (UniProt Q9UNN8)
# T1 sequence: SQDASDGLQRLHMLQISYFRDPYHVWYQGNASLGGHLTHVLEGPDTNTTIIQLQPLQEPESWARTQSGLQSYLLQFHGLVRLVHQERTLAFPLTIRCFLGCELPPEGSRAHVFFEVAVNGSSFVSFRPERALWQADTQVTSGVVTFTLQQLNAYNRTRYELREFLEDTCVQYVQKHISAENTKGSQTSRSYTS
# Experiment: ELISA; both purified
substance,measurement,value
IT4var20 CIDRα1.1 domain (Plasmodium falciparum) (domain or fragment),binding,binds
